Results reported in patent US20220386609A1, “META-DIAMIDE INSECTICIDES” (FMC Corporation, priority 2019, published 2022).
Some results were stated once for a whole list of compounds, not compound by compound.

Columns and labels:
Assay type in all cases: in vivo
[1] = system: diamondback moth (Plutella xylostella (L.)); experiment: Test A: control of diamondback moth on mustard plant, foliar spray; details: neonate larvae, 6 days, criterion is feeding damage bound and/or 100% mortality
[2] = system: fall armyworm (Spodoptera frugiperda (J. E. Smith)); experiment: Test B: control of fall armyworm on corn plant, foliar spray; details: 1-day-old larvae, 6 days, criterion is feeding damage bound and/or 100% mortality
[3] = system: Western Flower Thrips (Frankliniellla occidentalis (Pergande)); experiment: Test H: control of Western Flower Thrips through contact and/or systemic means; details: Soleil bean plant, adults and nymphs, 6 days, criterion is plant damage bound and/or 100% mortality

Row | Compound | control efficacy: feeding damage (40% or less feeding damage and/or 100% mortality) ([1]; tested at 10 ppm) [%] | control efficacy: feeding damage (40% or less feeding damage and/or 100% mortality) ([2]; tested at 10 ppm) [%] | control efficacy: feeding damage (40% or less feeding damage and/or 100% mortality) ([1]; tested at 50 ppm) [%] | control efficacy: feeding damage (40% or less feeding damage and/or 100% mortality) ([1]; tested at 250 ppm) [%] | control efficacy: feeding damage (40% or less feeding damage and/or 100% mortality) ([2]; tested at 50 ppm) [%] | control efficacy: feeding damage (40% or less feeding damage and/or 100% mortality) ([2]; tested at 250 ppm) [%] | control efficacy: plant damage (30% or less plant damage and/or 100% mortality) ([3]; tested at 50 ppm) [%] | control efficacy: plant damage (30% or less plant damage and/or 100% mortality) ([3]; tested at 250 ppm) [%]
1 | O=C(C[C@H](c1cccc(C(F)(F)F)c1)C(F)(F)F)Nc1ccc(Cl)c(C(=O)Nc2ccc(F)cc2F)c1 [Compound 103, (βR)—N-[4-chloro-3-[[(2,4-difluorophenyl)amino]carbonyl]phenyl]-β,3-bis(trisfluoromethyl)benzenepropanamide] | ≤ 40 | ≤ 40 |  |  |  |  |  | 
2 | O=C(CC(c1cc(Cl)cc(Cl)c1)C(F)(F)F)Nc1ccc(Cl)c(C(=O)Nc2cccc(F)c2)c1 (stereo not drawn) [Compound 32, 3,5-dichloro-N-[4-chloro-3-[[(3-fluorophenyl)amino]carbonyl]phenyl]-β-(trifluoro-methyl)benzenepropanamide] |  |  | ≤ 40 | ≤ 40 | ≤ 40 | ≤ 40 | ≤ 30 | ≤ 30
3 | O=C(CC(c1cccc(C(F)(F)F)c1)C(F)(F)F)Nc1ccc(Cl)c(C(=O)Nc2c(F)cc(F)cc2F)c1 (stereo not drawn) [Compound 85, N-[4-chloro-3-[[(2,4,6-trifluorophenyl)amino]carbonyl]phenyl]-β,3-bis(trifluoromethyl)-benzenepropanamide] | ≤ 40 |  | ≤ 40 |  | ≤ 40 |  |  | 
4 | O=C(CC(c1cc(Cl)cc(Cl)c1)C(F)(F)F)Nc1ccc(Cl)c(C(=O)Nc2ccc(F)cc2)c1 (stereo not drawn) [Compound 76, 3,5-dichloro-N-[4-chloro-3-[[(4-fluorophenyl)amino]carbonyl]phenyl]-β-(trifluoro-methyl)benzenepropanamide] | ≤ 40 | ≤ 40 | ≤ 40 | ≤ 40 | ≤ 40 | ≤ 40 | ≤ 30 | ≤ 30
5 | O=C(CC(c1cccc(C(F)(F)F)c1)C(F)(F)F)Nc1ccc(Cl)c(C(=O)Nc2ccc(C(F)(F)F)cc2)c1 (stereo not drawn) [Compound 8, N-[4-chloro-3-[[[4-(trifluoromethyl)phenyl]amino]carbonyl]phenyl]-β,3-bis(trifluoro-methyl)benzenepropanamide] |  |  | ≤ 40 | ≤ 40 | ≤ 40 | ≤ 40 |  | 
6 | O=C(CC(c1ccc(Cl)c(Cl)c1)C(F)(F)F)Nc1ccc(Cl)c(C(=O)Nc2ccc(F)cc2F)c1 (stereo not drawn) [Compound 52, 3,4-dichloro-N-[4-chloro-3-[[(2,4-difluorophenyl)amino]carbonyl]phenyl]-β-(trifluoro-methyl)benzenepropanamide] | ≤ 40 | ≤ 40 | ≤ 40 |  | ≤ 40 | ≤ 40 |  | ≤ 30
7 | O=C(CC(c1cc(Cl)cc(Cl)c1)C(F)(F)F)Nc1ccc(Cl)c(C(=O)Nc2ccc(F)cc2F)c1 (stereo not drawn) [Compound 60, 3,5-dichloro-N-[4-chloro-3-[[(2,4-difluorophenyl)amino]carbonyl]phenyl]-β-(trifluoro-methyl)benzenepropanamide] | ≤ 40 | ≤ 40 | ≤ 40 |  | ≤ 40 | ≤ 40 | ≤ 30 | ≤ 30
8 | O=C(CC(c1ccc(F)c(Cl)c1)C(F)(F)F)Nc1ccc(Cl)c(C(=O)Nc2ccc(F)cc2F)c1 (stereo not drawn) [Compound 115, 3-chloro-N-[4-chloro-3-[[(2,4-difluorophenyl)amino]carbonyl]phenyl]-4-fluoro-β-(trifluoromethyl)benzenepropanamide] | ≤ 40 | ≤ 40 | ≤ 40 |  | ≤ 40 |  |  | 
9 | O=C(CC(c1cccc(C(F)(F)F)c1)C(F)(F)F)Nc1ccc(Cl)c(C(=O)Nc2ccc(F)cc2Cl)c1 (stereo not drawn) [Compound 82, N-[4-chloro-3-[[(2-chloro-4-fluorophenyl)amino]carbonyl]phenyl]-β,3-bis(trifluoromethyl)-benzenepropanamide] | ≤ 40 | ≤ 40 | ≤ 40 |  | ≤ 40 |  |  | 
10 | O=C(CC(c1cccc(C(F)(F)F)c1)C(F)(F)F)Nc1ccc(Cl)c(C(=O)Nc2ccc(F)cc2F)c1 (stereo not drawn) [Compound 5, N-[4-chloro-3-[[(2,4-difluorophenyl)amino]carbonyl]phenyl]-β,3-bis(trifluoromethyl)benzenepropanamide] | ≤ 40 | ≤ 40 | ≤ 40 | ≤ 40 | ≤ 40 | ≤ 40 |  | 
11 | O=C(CC(c1cc(Cl)cc(Cl)c1)C(F)(F)F)Nc1ccc(F)c(C(=O)Nc2ccc(F)cc2)c1 (stereo not drawn) [Compound 17, 3,5-dichloro-N-[4-fluoro-3-[[(4-fluorophenyl)amino]carbonyl]phenyl]-β-(trifluoromethyl)benzenepropanamide] | ≤ 40 | ≤ 40 | ≤ 40 | ≤ 40 | ≤ 40 | ≤ 40 |  | 
12 | O=C(CC(c1ccc(Cl)c(Cl)c1)C(F)(F)F)Nc1ccc(Cl)c(C(=O)Nc2ccc(F)cc2)c1 (stereo not drawn) [Compound 1, 3,4-dichloro-N-[4-chloro-3-[[(4-fluorophenyl)amino]carbonyl]phenyl]-β-(trifluoro-methyl)benzenepropanamide] |  | ≤ 40 | ≤ 40 | ≤ 40 | ≤ 40 | ≤ 40 | ≤ 30 | ≤ 30
13 | O=C(CC(c1cc(Cl)c(F)c(Cl)c1)C(F)(F)F)Nc1ccc(Cl)c(C(=O)Nc2ccc(F)cc2F)c1 (stereo not drawn) [Compound 105, 3,5-dichloro-N-[4-chloro-3-[[(2,4-difluorophenyl)amino]carbonyl]phenyl]-4-fluoro-β-(trifluoromethyl)benzenepropanamide] | ≤ 40 | ≤ 40 | ≤ 40 |  | ≤ 40 |  |  | 
14 | O=C(CC(c1cccc(C(F)(F)F)c1)C(F)(F)F)Nc1ccc(Cl)c(C(=O)Nc2ccc(Cl)cc2F)c1 (stereo not drawn) [Compound 83, N-[4-chloro-3-[[(4-chloro-2-fluorophenyl)amino]carbonyl]phenyl]-β,3-bis(trifluoro-methyl)benzenepropanamide] | ≤ 40 | ≤ 40 | ≤ 40 |  | ≤ 40 |  |  | 
